PubChem BioAssay AID1259308 – NCATS | 2017
The whole screen tested about 59,000 reagents; below is a part drawn at random. About 1,510 of all reagents (2.6%) count as active. 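Calls use total luciferase alone and ignore viability, so some active siRNAs may act by altering cell number.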 Unmarked entries are inactive. The numbers tell different reagents against one gene apart.

Purpose: 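Genes whose loss raises luciferase production in HEK293 cells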 (primary screen)
Cell system: human HEK293 embryonic kidney cells stably expressing firefly luciferase (HEK-CMV-Luc2-Hygro)
Knock-down reagent: single siRNA against human genes, 0.8 pmol siRNA per well
Duration: 72 h
Measured: 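Luciferase light (ONE-Glo) measured on one replicate plate set and viability (CellTiter-Glo) on the other, scaled to a negative control siRNA, with robust z-scores and luciferase per cell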
Direction: total luciferase, z-score and total luciferase, % of control: higher = more reporter protein produced; luciferase per cell, z-score: higher = more reporter output per viable cell; viable cells, % of control: higher = more viable cells
Rule for the call: 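An siRNA counts as active if its total luciferase robust z-score exceeds 3; genes with two or more such siRNAs out of three were retested with fresh siRNAs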
Meaning of the calls: active = raised luciferase; inactive = no rise

The first 9 entries, ahead of the listing:
no.	target	siRNA no.	total luciferase, z-score	total luciferase, % of control	luciferase per cell, z-score	viable cells, % of control
1	OR2M4	1	0.24	86.7	1.24	69.9
2	OR2M4	2	-1.65	49.1	-0.265	58.9
3	OR2M4	3	0.912	100	2.27	61.6
4	SNRPD3	1	6.41 (active)	209	4.67	68.5
5	SNRPD3	2	2.67	135	3.46	60.6
6	SNRPD3	3	1.79	117	1.41	90.5
7	STK10	1	-1.89	44.3	-1.49	73.1
8	STK10	2	1.1	104	0.567	99.9
9	STK10	3	3.19 (active)	145	1.8	101

The list itself, from the start:
no.	target	siRNA no.	total luciferase, z-score	total luciferase, % of control	luciferase per cell, z-score	viable cells, % of control
1	OR2M4	1	0.24	86.7	1.24	69.9
2	OR2M4	2	-1.65	49.1	-0.265	58.9
3	OR2M4	3	0.912	100	2.27	61.6
4	SNRPD3	1	6.41 (active)	209	4.67	68.5
5	SNRPD3	2	2.67	135	3.46	60.6
6	SNRPD3	3	1.79	117	1.41	90.5
7	STK10	1	-1.89	44.3	-1.49	73.1
8	STK10	2	1.1	104	0.567	99.9
9	STK10	3	3.19 (active)	145	1.8	101
10	SATB2	1	-0.196	78	-0.352	95.6
11	SATB2	2	0.111	84.1	0.695	78.3
12	SATB2	3	0.854	98.9	0.735	91
13	PRH1	1	2.13	124	1.17	102
14	PRH1	2	-1.9	44.1	-1.56	74.4
15	PRH1	3	-0.952	63	0.0414	69.6
16	FDCSP	1	-0.0166	81.6	0.481	80.3
17	FDCSP	2	-0.686	68.3	-0.615	89.7
18	FDCSP	3	-0.683	68.3	-0.766	93.4
19	WIZ	1	0.328	88.4	0.0446	97.7
20	WIZ	2	-1.68	48.5	-1.9	89.4
21	WIZ	3	1.1	104	1.66	74.9
22	CDK18	1	0.103	83.9	-0.0608	95.3
23	CDK18	2	0.228	86.4	-0.292	104
24	CDK18	3	3.22 (active)	146	1.87	99.8
25	ANKS6	1	-0.265	76.6	-0.127	88.5
26	ANKS6	2	-2.03	41.5	-2.15	81.6
27	ANKS6	3	0.249	86.8	0.192	92.2
28	LPIN3	1	-0.24	77.1	-0.558	99.8
29	LPIN3	2	2.88	139	1.82	96.3
30	LPIN3	3	-2.59	30.5	-2.48	65.3
31	PSMD4	1	2.21	126	2.46	73.5
32	PSMD4	2	1.75	117	1.74	82.6
33	PSMD4	3	2.38	129	2.01	85.1
34	HIKESHI	1	-0.236	77.2	-0.106	88.7
35	HIKESHI	2	-1.29	56.2	-1.75	99.5
36	HIKESHI	3	1.99	122	1.14	101
37	SLCO5A1	1	2.83	138	1.61	101
38	SLCO5A1	2	-1.55	51.1	-1.51	84.9
39	SLCO5A1	3	-0.165	78.6	0.988	67.7
40	RASL11A	1	0.484	91.5	0.146	98.4
41	RASL11A	2	-2.04	41.4	-2.88	98.6
42	RASL11A	3	0.73	96.4	-0.403	120
43	HSBP1	1	1.24	107	1.06	90.2
44	HSBP1	2	0.183	85.5	-0.173	100
45	HSBP1	3	0.198	85.8	0.373	86.9
46	HOXB4	1	0.171	85.3	0.0304	94.5
47	HOXB4	2	0.563	93.1	0.619	88.4
48	HOXB4	3	-0.108	79.7	-0.084	91.1
49	HSPB9	1	-1.04	61.3	-1.55	103
50	HSPB9	2	1.86	119	1.87	81.1
51	HSPB9	3	-1.98	42.5	-0.809	58.8
52	CCNT2	1	2.1	124	1.73	87.5
53	CCNT2	2	-1.79	46.3	-1.6	78.9
54	CCNT2	3	-0.0692	80.5	-0.249	96.1
55	GRM4	1	0.133	84.5	0.189	89.9
56	GRM4	2	0.342	88.7	0.185	94.4
57	GRM4	3	-0.5	71.9	-1.06	106
58	RYBP	1	0.72	96.2	0.218	101
59	RYBP	2	-2.81	26.1	-3.5	73.1
60	RYBP	3	1.92	120	2.87	63.1
61	SDE2	1	1.43	110	1.96	73.5
62	SDE2	2	-0.531	71.3	0.389	72
63	SDE2	3	0.574	93.3	0.875	82.8
64	TRIM64	1	0.861	99	1.42	76.1
65	TRIM64	2	0.305	88	-0.502	112
66	TRIM64	3	-1.44	53.2	-1.86	97.1
67	CASP6	1	-0.231	77.3	-0.581	101
68	CASP6	2	1.59	113	0.612	108
69	CASP6	3	0.0372	82.6	-0.558	107
70	PARGP1	1	2.57	133	1.99	87.9
71	PARGP1	2	-0.718	67.6	-0.79	93
72	PARGP1	3	-0.114	79.6	-0.279	95.8
73	TP53I13	1	2.11	124	1.74	87.6
74	TP53I13	2	0.228	86.4	0.605	82.4
75	TP53I13	3	-0.696	68.1	-0.178	79.7
